Read-outs that look alike come from different tables or passages of the source. No constants are given. Whether binding was seen depends on the method and setting. In cells and extracts the contact can be indirect. Some binding calls cover weakened binding; strength is not graded here. Sequences can lack the tags named with a protein.

The chains behind the UniProt entries cited, without tags or fusion partners. Where a name states a change or a piece, a line headed by the entry shows the natural chain unless it says otherwise.
UniProt O18333, whole entry, looked up, stated change not applied: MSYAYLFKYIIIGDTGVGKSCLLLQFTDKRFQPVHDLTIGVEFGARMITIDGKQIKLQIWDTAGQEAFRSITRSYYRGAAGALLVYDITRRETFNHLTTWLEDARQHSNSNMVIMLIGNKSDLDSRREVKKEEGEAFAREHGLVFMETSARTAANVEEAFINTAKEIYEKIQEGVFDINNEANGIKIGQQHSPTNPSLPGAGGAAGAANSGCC

Consider 2 molecules from article doi:10.1101/2025.05.28.656585.

Test in all cases: co-IP
Experiment [1] concerns the target T1, HA-tagged Syd fragment N2 (Syd 1-529) (Drosophila) (UniProt Q9GQF1).
T1 sequence: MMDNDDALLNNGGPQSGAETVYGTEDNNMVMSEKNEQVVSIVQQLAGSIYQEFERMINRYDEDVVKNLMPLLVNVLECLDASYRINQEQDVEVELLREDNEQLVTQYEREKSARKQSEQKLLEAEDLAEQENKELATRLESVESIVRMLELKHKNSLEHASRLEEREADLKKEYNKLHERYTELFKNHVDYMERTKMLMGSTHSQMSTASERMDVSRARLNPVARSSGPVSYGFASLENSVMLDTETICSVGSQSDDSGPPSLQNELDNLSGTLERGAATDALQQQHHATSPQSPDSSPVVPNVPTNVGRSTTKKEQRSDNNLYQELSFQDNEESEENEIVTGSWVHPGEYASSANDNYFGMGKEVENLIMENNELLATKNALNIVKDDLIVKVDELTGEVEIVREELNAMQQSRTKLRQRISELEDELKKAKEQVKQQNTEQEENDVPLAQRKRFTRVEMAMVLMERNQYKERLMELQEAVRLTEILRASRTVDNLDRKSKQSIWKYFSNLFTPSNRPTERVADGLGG

Experiment [2] has as its target T2, HA-tagged Syd fragment N4 (Syd 1-485) (Drosophila) (UniProt Q9GQF1).
T2 sequence: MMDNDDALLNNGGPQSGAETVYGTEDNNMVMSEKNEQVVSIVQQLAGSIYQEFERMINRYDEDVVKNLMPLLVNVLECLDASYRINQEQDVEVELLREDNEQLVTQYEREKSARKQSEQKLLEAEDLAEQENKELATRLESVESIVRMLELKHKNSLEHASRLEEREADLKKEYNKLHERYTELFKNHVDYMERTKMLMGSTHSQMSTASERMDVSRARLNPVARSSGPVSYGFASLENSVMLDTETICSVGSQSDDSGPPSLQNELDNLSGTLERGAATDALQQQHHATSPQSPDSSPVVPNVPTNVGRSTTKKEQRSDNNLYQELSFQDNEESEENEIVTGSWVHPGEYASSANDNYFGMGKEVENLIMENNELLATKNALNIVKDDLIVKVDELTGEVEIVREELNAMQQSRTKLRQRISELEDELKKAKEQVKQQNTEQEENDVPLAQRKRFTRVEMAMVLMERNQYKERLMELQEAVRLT

In experiment [3] the target is T3, HA-tagged Syd fragment N5 (RH1-LZI region only) (Drosophila) (UniProt Q9GQF1).
T3 sequence: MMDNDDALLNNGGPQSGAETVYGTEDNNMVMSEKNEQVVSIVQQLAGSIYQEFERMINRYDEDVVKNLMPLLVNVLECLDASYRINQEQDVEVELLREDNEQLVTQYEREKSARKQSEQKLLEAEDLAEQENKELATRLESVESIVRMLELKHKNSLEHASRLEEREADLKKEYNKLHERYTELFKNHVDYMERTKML

The target in experiment [4] is T1, HA-tagged Syd fragment N2 (Syd 1-529) (Drosophila). This is another data set of the same source.
For experiment [5], the target named is T2, HA-tagged Syd fragment N4 (Syd 1-485) (Drosophila). This is another data set of the same source.

For “myc-tagged Rab2 Q65L (from UniProt O18333 1-213)”, the results for the binding result in experiment [1] and in experiment [2] were “binds” and “no binding”, respectively.

B1: V5-tagged dynein light intermediate chain (DLIC) (protein, UniProt Q9VZ20 1-493)
chain: MAMNSGTQTNALTSSFTMKKKDAAAEKENLWSAILNEVQTQGSTKLPSNKSVLVLGDNATGKTTLIAKLQGVEDPKKGSGLEYAYIDVKDEYRDDMTRLGVWVLDGDPGHTNLLHYALNETNYAHTLVILTVSMTQPWGWLEQLNHWIKVLGQHIDSLQLDAKEKEAARQRLTTTWQSYCEVGDDLDPGSPVKRTMRNNSIDEDDLLPLTEDALITNLGLDIVVVVTKTDYMTTLEKEYEYRDEHFDFIQQWIRNFCLRHGTSLFYTSVKEDKNCDVLYKYLTHRIYGLPFRTPALVVEKDAVLIPAGWDSLKKISILYENMHGVKAENPYTDIIKSPPTRKAVSNREAEVQTEDEQAFLARQQEILKQGDQVRGESPLRSQGVGSNKSGPRTPGTTGQSSPKKIDPKLTPATPGAEGVLANFFNSLLHKKSGSPGTGGPGGAGNPAGPGRTANGTDAVMTPEKLAVRTDAAAELDRLSRSVKKEIDMSQSEC
For the molecule B1, the binding entry in experiment [3], in experiment [4] and in experiment [5] was “binds” in each case.
